# Results published in US20260193623.
# Construct, isoform or probe ends are uncertain for at least one entry. For part of these data: A negative result means that nothing was seen under these conditions. Protein sequences can lack the tags named with them.
# Tests used:
# Test in all cases: activity assay
# MG153-13 = test system: T1, MG153-13; details: primer extension gel; 3 mM MgCl2, 37 C; protein translated in vitro; protein details: N-terminal Strep; label: 5'-FAM primer; DNA:RNA hybrid
# T1 sequence (limits assumed): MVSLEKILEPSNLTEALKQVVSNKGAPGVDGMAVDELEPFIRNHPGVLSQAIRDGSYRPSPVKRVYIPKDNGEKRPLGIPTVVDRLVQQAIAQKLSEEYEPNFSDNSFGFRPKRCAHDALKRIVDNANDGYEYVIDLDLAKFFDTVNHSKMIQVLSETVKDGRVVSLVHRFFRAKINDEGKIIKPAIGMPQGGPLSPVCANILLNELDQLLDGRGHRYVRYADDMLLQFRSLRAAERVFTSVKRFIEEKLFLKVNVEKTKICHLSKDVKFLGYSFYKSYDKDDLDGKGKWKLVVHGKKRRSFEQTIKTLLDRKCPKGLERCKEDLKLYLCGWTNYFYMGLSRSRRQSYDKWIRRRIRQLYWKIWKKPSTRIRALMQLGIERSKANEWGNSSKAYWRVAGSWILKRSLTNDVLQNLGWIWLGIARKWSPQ
# MG151-94 = test system: T2, MG151-94; details: primer extension gel; protein translated in vitro; protein details: Strep, RT-RNase H trim; label: 5'-FAM primer; DNA:RNA hybrid
# T2 sequence: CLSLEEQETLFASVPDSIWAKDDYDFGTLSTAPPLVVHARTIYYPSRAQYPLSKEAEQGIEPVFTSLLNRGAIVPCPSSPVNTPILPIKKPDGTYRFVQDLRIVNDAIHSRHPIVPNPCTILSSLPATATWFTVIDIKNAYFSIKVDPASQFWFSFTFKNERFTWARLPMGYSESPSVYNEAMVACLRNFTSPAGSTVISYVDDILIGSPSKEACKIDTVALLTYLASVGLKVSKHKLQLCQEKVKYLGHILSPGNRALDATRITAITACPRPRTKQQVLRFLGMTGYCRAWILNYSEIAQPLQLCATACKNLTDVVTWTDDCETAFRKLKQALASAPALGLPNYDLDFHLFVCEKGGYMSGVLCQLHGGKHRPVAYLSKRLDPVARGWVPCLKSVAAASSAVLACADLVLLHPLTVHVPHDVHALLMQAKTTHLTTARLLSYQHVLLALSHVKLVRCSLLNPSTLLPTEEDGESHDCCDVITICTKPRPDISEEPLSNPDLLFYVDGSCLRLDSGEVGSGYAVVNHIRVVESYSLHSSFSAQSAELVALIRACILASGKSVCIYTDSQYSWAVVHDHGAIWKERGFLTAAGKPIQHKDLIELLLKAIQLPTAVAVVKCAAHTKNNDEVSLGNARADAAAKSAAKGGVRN
# MG153-15 = test system: T3, MG153-15; details: primer extension gel; 3 mM MgCl2, 37 C; protein translated in vitro; protein details: N-terminal Strep; label: 5'-FAM primer; DNA:RNA hybrid
# T3 sequence (limits assumed): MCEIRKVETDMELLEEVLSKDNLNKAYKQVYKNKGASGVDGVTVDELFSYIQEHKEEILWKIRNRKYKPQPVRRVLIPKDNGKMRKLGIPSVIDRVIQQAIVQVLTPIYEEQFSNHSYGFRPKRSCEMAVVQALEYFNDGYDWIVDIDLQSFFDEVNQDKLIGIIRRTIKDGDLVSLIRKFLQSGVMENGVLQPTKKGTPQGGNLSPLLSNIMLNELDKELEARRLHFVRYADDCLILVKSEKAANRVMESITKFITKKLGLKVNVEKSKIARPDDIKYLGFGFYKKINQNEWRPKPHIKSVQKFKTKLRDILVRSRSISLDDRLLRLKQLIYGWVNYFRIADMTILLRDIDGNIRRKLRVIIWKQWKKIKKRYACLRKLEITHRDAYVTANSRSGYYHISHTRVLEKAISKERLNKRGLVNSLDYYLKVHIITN
# MG153-37 = test system: T4, MG153-37; details: primer extension gel; 3 mM MgCl2, 37 C; protein translated in vitro; protein details: N-terminal Strep; label: 5'-FAM primer; DNA:RNA hybrid
# T4 sequence (limits assumed): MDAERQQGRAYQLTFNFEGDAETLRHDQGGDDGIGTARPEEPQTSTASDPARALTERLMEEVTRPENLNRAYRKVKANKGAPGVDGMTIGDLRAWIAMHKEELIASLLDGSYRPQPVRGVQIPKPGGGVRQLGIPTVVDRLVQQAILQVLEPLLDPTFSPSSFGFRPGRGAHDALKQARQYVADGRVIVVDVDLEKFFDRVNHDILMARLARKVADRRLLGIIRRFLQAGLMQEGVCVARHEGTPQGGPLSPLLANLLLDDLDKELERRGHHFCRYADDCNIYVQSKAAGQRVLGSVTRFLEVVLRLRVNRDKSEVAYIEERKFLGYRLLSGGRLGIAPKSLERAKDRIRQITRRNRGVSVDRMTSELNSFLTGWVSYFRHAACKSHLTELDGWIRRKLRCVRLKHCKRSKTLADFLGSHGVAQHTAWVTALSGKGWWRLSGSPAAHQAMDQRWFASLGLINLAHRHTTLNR
# MG153-29 = test system: T5, MG153-29; details: primer extension gel; 3 mM MgCl2, 37 C; protein translated in vitro; protein details: N-terminal Strep; label: 5'-FAM primer; DNA:RNA hybrid
# T5 sequence (limits assumed): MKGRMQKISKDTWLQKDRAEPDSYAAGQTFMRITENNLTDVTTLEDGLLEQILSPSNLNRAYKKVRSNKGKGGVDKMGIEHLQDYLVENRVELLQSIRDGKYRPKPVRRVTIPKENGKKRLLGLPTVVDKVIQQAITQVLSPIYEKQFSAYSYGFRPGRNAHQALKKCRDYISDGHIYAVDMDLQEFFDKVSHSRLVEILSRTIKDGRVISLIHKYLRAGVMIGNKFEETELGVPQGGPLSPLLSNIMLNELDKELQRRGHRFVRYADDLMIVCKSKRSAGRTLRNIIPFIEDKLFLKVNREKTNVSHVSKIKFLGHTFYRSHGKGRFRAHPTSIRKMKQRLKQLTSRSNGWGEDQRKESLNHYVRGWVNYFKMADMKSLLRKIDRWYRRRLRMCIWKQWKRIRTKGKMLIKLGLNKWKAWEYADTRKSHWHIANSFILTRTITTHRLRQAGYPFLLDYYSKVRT
# MG154-1 = test system: T6, MG154-1; details: tested, not listed as active; protein translated in vitro; protein details: N-terminal Strep; label: 5'-FAM primer; DNA:RNA hybrid
# T6 sequence: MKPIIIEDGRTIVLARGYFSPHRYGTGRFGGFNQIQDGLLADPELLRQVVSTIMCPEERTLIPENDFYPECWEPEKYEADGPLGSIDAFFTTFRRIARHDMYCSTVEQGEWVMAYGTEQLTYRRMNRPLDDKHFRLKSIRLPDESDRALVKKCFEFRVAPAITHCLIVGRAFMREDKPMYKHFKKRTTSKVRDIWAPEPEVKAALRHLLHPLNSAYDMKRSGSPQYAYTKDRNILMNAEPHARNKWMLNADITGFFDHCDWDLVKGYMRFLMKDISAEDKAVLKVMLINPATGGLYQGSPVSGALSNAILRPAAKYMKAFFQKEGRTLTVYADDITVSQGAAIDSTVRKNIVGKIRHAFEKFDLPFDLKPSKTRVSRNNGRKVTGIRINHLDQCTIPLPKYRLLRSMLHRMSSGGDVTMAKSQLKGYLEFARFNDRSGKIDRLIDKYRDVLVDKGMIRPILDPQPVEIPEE
sequence,measurement,setting,value
GGCAAACCGCCTCTCCCCGCGCGTTGGCCGATTCATTAATGCAGCTGGCACGACAGGTTTCCCGACTGGAAAGGAGACCCGGGCAGTGAGCGCAACGGGTCTCCAATTTAAGCCAGCCCCGACACCCGCCAACACCCGCTGACGCGCCCTGACGGGCTTGTCTGCTCCCGGCATCCGCTTACAGACAAGCTGTGACCGTCTC / GAGACGGTCACAGCTTGTCTG [202-nt RNA template annealed to DNA primer],activity on this sequence,MG153-13,active
same,activity on this sequence,MG151-94,active
same,activity on this sequence,MG153-15,active
same,activity on this sequence,MG153-37,active
same,activity on this sequence,MG153-29,active
same,activity on this sequence,MG154-1,not active
